According to patent publication US20250198992A1, “IN VITRO METHODS” (HALEON CH SARL, priority 2022, published 2025):

Assay: Non-specific adsorption of diclofenac on the OFM probes and tubing
Conditions: 6 h perfusion of 1 μg mL^−1 test solution with 1% HSA; inflow vs outflow concentration
Experimental: Two test solutions of diclofenac diethyl amine salt (DDEA) and diclofenac sodium salt (DNa) were tested. […] Samples were collected in 1 h intervals. Syringes and Eppendorf® vials were used to deliver test solution to the OFM outlet sections and tubing, respectively. Samples from the syringes and from the Eppendorf® vials were taken at the start (t=0 h) and at the end (t=6 h) of the experiment to determine the concentration entering the OFM probe and tubing. Syringes, dosing needles, Eppendorf® vials, and pipette tips were coated with each test solution prior to use. For coating, the samples were filled with test solutions and maintained at room temperature for 30 min. Afterwards, the coating test solutions were discarded. Pipette tips underwent three cycles of filling and emptying of test solutions. The fourth filling of the pipette tip was used as the sample. Adsorption was assessed by comparing inflow to outflow concentrations. […] LLOQ was 10 ng mL^-1.

O=C(O)Cc1ccccc1Nc1c(Cl)cccc1Cl [DDEA, diclofenac diethylammonium]
adsorption to the OFM probes: absence of adsorption | adsorption to the OFM tubing material: absence of adsorption
